Experimental data taken from PMC11009467.

System: GST-CsERF017 (Citrus sinensis)
Experiment: EMSA
Details: Beyotime Chemiluminescent EMSA Kit per manufacturer; unlabeled oligonucleotides as competitors; pH and temperature not stated; recombinant protein; protein details: N-terminal GST (pGEX-6p-3); label: 5'-biotin

Sequence | binding result
AAACTTAAGCCCCTTCTTCATCAAAAAAAACTCAAAAATTTTGTAACCAA (double strand) [CsCYP82L1 promoter Mutant Probe P2] | no binding
AAACTTAAGCCCCTTCTTCATCACCGACAACTCAAAAATTTTGTAACCAA (double strand) [CsCYP82L1 promoter Probe P2] | binds
AACTTTTATTTGACAACTAAATAAAAATGCCAAATCTTGTTTCCAGAGTG (double strand) [CsCYP82L1 promoter Mutant Probe P1] | no binding
AACTTTTATTTGACAACTAAATGTCGGTGCCAAATCTTGTTTCCAGAGTG (double strand) [CsCYP82L1 promoter Probe P1] | binds

For at least one entry, the source does not settle the construct or the ends of the probe. No signal at the amounts used counts as a negative. At least one verdict was read from the data and is not stated in words by the source.
